PubChem BioAssay AID602196, INSERM, 2012
Shown is one part, drawn at random, of about 23,000 deposited reagents. 455 of them (2%) were called active. 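Active includes both protection and sensitisation; some change values fall well beyond the stated -50 to +50 range.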 A number with no mark means an inactive call. Not all columns of the deposit are shown. Not given: the amount of reagent.

Test: 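Genes whose knock-down alters cisplatin killing of lung cancer cells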
Cell system: human A549 lung cancer cells
Knock-down reagent: siRNA pair against human genes
Time to read-out: 48 h transfection before cisplatin; time from cisplatin to read-out not stated
Challenge: cisplatin at a dose killing half of control-siRNA cells; exact dose and duration not given
Measured: 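Shift in cisplatin death relative to control siRNA, from -50 (all cells die) to +50 (no cells die); siRNAs harmful on their own scored 0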
Direction: two-siRNA summed score (-2 to +2): higher = both siRNAs protect from cisplatin killing; -2 means both sensitise; mean protection from cisplatin (shift in death): higher = protection from cisplatin killing
Hit rule: 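Each siRNA scores 0 if harmful alone by LDH or WST-1, otherwise +1 if it reduces and -1 if it increases cisplatin killing; a gene is active when both siRNAs agree (sum +2 or -2)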
Meaning of the calls: active = both siRNAs shift cisplatin killing the same way; inactive = no consistent shift, or siRNA harmful alone

C3orf36 [SID131507167] → two-siRNA summed score (-2 to +2) = 0; mean protection from cisplatin (shift in death) (%) = -0.5
CNTD1 [SID131518922] → two-siRNA summed score (-2 to +2) = 1; mean protection from cisplatin (shift in death) (%) = -4.9
MRNIP [SID131506821] → two-siRNA summed score (-2 to +2) = 0; mean protection from cisplatin (shift in death) (%) = -0.9
MRNIP [SID131521883] → two-siRNA summed score (-2 to +2) = 1; mean protection from cisplatin (shift in death) (%) = 15.3
EEF1AKMT3 [SID131513243] → two-siRNA summed score (-2 to +2) = 0; mean protection from cisplatin (shift in death) (%) = 6.4
LOC389683 [SID131517275] → two-siRNA summed score (-2 to +2) = 0; mean protection from cisplatin (shift in death) (%) = 12.9
MIR17HG [SID131511834] → two-siRNA summed score (-2 to +2) = 0; mean protection from cisplatin (shift in death) (%) = 4.8
MNMIP1 [SID131505152] → two-siRNA summed score (-2 to +2) = 0; mean protection from cisplatin (shift in death) (%) = -3.7
ATAD3A [SID131509768] → two-siRNA summed score (-2 to +2) = 0; mean protection from cisplatin (shift in death) (%) = 2.5
DIRAS3 [SID131511771] → two-siRNA summed score (-2 to +2) = 0; mean protection from cisplatin (shift in death) (%) = 4.7
PPFIA3 [SID131517768] → two-siRNA summed score (-2 to +2) = 0; mean protection from cisplatin (shift in death) (%) = 14.7
SERPIND1 [SID131512337] → two-siRNA summed score (-2 to +2) = 0; mean protection from cisplatin (shift in death) (%) = 5.4
LOC441789 [SID131515313] → two-siRNA summed score (-2 to +2) = 0; mean protection from cisplatin (shift in death) (%) = 9
SCN1A [SID131521266] → two-siRNA summed score (-2 to +2) = 1; mean protection from cisplatin (shift in death) (%) = 12.8
EPHX1 [SID131505500] → two-siRNA summed score (-2 to +2) = 0; mean protection from cisplatin (shift in death) (%) = -3
LOC440948 [SID131521082] → two-siRNA summed score (-2 to +2) = 1; mean protection from cisplatin (shift in death) (%) = 12.1
ARMCX3 [SID131509715] → two-siRNA summed score (-2 to +2) = 0; mean protection from cisplatin (shift in death) (%) = 2.4
PSMC1 [SID131522430] → two-siRNA summed score (-2 to +2) = 1; mean protection from cisplatin (shift in death) (%) = 18.5
AEBP1 [SID131504011] → two-siRNA summed score (-2 to +2) = 0; mean protection from cisplatin (shift in death) (%) = -6.8
PTPRCAP [SID131517574] → two-siRNA summed score (-2 to +2) = 0; mean protection from cisplatin (shift in death) (%) = 13.9
LOC220793 [SID131515356] → two-siRNA summed score (-2 to +2) = 0; mean protection from cisplatin (shift in death) (%) = 9
HDAC4 [SID131515458] → two-siRNA summed score (-2 to +2) = 0; mean protection from cisplatin (shift in death) (%) = 9.2
MRE11 [SID131517427] → two-siRNA summed score (-2 to +2) = 0; mean protection from cisplatin (shift in death) (%) = 13.4
MARCHF9 [SID131509057] → two-siRNA summed score (-2 to +2) = 0; mean protection from cisplatin (shift in death) (%) = 1.8
SLC1A2 [SID131505351] → two-siRNA summed score (-2 to +2) = 0; mean protection from cisplatin (shift in death) (%) = -3.3
SFTPB [SID131518136] → two-siRNA summed score (-2 to +2) = 0; mean protection from cisplatin (shift in death) (%) = 16.8
ADPRH [SID131506662] → two-siRNA summed score (-2 to +2) = 0; mean protection from cisplatin (shift in death) (%) = -1.2
GNA11 [SID131513352] → two-siRNA summed score (-2 to +2) = 0; mean protection from cisplatin (shift in death) (%) = 6.5
APMAP [SID131505269] → two-siRNA summed score (-2 to +2) = 0; mean protection from cisplatin (shift in death) (%) = -3.4
DEFB126 [SID131511141] → two-siRNA summed score (-2 to +2) = 0; mean protection from cisplatin (shift in death) (%) = 4
ATF3 [SID131507637] → two-siRNA summed score (-2 to +2) = 0; mean protection from cisplatin (shift in death) (%) = 0.1
